The target in assay [1] is T1, Chs2-1-629 (two-hybrid fusion) (S. cerevisiae) (UniProt P14180).
T1 sequence: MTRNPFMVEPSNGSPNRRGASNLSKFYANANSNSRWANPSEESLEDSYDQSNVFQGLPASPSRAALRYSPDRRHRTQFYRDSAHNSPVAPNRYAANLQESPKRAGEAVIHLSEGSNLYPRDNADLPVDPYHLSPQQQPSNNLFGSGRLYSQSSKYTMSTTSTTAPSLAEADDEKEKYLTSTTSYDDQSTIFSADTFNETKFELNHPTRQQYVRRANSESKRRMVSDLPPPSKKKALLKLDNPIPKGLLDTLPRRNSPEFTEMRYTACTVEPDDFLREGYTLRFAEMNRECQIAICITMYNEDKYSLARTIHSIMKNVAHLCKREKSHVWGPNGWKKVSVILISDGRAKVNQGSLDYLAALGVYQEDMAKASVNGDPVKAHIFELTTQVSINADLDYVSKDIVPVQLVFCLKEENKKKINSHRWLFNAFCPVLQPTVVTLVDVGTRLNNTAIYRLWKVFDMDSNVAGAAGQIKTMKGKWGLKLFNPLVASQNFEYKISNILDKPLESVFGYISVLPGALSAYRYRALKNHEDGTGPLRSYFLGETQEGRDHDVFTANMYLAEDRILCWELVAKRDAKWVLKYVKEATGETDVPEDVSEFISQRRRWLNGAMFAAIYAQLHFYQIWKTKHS
In words: two-hybrid; vectors pGADT7 and pGBKT7 (Clontech); growth for two or three days at 30°C on Synthetic Complete medium lacking leucine, tryptophan and histidine (selective).

Assay [2] deals with T2, Chs2-215-629 (two-hybrid fusion) (S. cerevisiae) (UniProt P14180).
T2 sequence: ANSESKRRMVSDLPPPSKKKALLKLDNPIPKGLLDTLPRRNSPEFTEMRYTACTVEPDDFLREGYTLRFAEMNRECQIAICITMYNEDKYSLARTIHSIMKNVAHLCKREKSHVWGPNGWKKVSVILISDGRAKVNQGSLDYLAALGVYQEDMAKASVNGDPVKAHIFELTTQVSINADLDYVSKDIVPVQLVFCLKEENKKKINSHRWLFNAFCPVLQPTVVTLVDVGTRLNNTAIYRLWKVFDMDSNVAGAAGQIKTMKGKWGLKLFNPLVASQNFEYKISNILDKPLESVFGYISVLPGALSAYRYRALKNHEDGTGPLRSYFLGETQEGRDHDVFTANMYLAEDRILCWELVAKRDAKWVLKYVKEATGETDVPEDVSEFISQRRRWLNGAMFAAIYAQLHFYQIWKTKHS
The assay is described as above.

These are yes or no findings as the source states them, for the method shown. Binding can be weak; no strength is given. Sequences can lack the tags named with a protein.

With “Cyk3-2A (transglutaminase-like domain mutant, two-hybrid fusion) (S. cerevisiae) (domain or fragment)”, the binding entry in assay [1] and in assay [2] was “binds” in each case.
